Reference: publication PMC7337937, “CryoEM structures of human CMG–ATPγS–DNA and CMG–AND-1 complexes” (Nucleic Acids Research, 2020)

Molecular target: human MCM3 (853 aa isoform) (human)
Assay: cryo-EM structure; CMGA: AND-1 co-expressed with the CMG subunits in HEK293-F, co-purified; 1 mM ATPγS added, glutaraldehyde cross-linked before grid preparation; 6.77 Å map, CMG structure and AND-1 trimer crystal structure docked as rigid bodies; both purified

B1: human AND-1, recombinant full length (natural protein, UniProt O75717 1-1129, looked up)
chain: MPATRKPMRYGHTEGHTEVCFDDSGSFIVTCGSDGDVRIWEDLDDDDPKFINVGEKAYSCALKSGKLVTAVSNNTIQVHTFPEGVPDGILTRFTTNANHVVFNGDGTKIAAGSSDFLVKIVDVMDSSQQKTFRGHDAPVLSLSFDPKDIFLASASCDGSVRVWQISDQTCAISWPLLQKCNDVINAKSICRLAWQPKSGKLLAIPVEKSVKLYRRESWSHQFDLSDNFISQTLNIVTWSPCGQYLAAGSINGLIIVWNVETKDCMERVKHEKGYAICGLAWHPTCGRISYTDAEGNLGLLENVCDPSGKTSSSKVSSRVEKDYNDLFDGDDMSNAGDFLNDNAVEIPSFSKGIINDDEDDEDLMMASGRPRQRSHILEDDENSVDISMLKTGSSLLKEEEEDGQEGSIHNLPLVTSQRPFYDGPMPTPRQKPFQSGSTPLHLTHRFMVWNSIGIIRCYNDEQDNAIDVEFHDTSIHHATHLSNTLNYTIADLSHEAILLACESTDELASKLHCLHFSSWDSSKEWIIDLPQNEDIEAICLGQGWAAAATSALLLRLFTIGGVQKEVFSLAGPVVSMAGHGEQLFIVYHRGTGFDGDQCLGVQLLELGKKKKQILHGDPLPLTRKSYLAWIGFSAEGTPCYVDSEGIVRMLNRGLGNTWTPICNTREHCKGKSDHYWVVGIHENPQQLRCIPCKGSRFPPTLPRPAVAILSFKLPYCQIATEKGQMEEQFWRSVIFHNHLDYLAKNGYEYEESTKNQATKEQQELLMKMLALSCKLEREFRCVELADLMTQNAVNLAIKYASRSRKLILAQKLSELAVEKAAELTATQVEEEEEEEDFRKKLNAGYSNTATEWSQPRFRNQVEEDAEDSGEADDEEKPEIHKPGQNSFSKSTNSSDVSAKSGAVTFSSQGRVNPFKVSASSKEPAMSMNSARSTNILDNMGKSSKKSTALSRTTNNEKSPIIKPLIPKPKPKQASAASYFQKRNSQTNKTEEVKEENLKNVLSETPAICPPQNTENQRPKTGFQMWLEENRSNILSDNPDFSDEADIIKEGMIRFRVLSTEERKVWANKAKGETASEGTEAKKRKRVVDESDETENQEEKAKENLNLSKKQKPLDFSTNQKLSAFAFKQE
notes: AND-1, human, full-length ORF from IMAGE cDNA clone 6514641; The tag is 2xStrepII-TEV; no TEV cleavage step is described; Only the SepB domain is visible in the map; also called AND-1 trimer; source: HEK293-F, transient co-transfection with the CMG subunits, co-purified as CMGA
- binding: no binding

These are yes or no findings as the source states them, for the method shown. In cells and extracts the contact can be indirect.
